The record followed here is patent publication US6800750.

Sequences of proteins named here, by UniProt entry; tags and fusion partners are left off. Residues count along the entry.
UniProt P08047, 2-785: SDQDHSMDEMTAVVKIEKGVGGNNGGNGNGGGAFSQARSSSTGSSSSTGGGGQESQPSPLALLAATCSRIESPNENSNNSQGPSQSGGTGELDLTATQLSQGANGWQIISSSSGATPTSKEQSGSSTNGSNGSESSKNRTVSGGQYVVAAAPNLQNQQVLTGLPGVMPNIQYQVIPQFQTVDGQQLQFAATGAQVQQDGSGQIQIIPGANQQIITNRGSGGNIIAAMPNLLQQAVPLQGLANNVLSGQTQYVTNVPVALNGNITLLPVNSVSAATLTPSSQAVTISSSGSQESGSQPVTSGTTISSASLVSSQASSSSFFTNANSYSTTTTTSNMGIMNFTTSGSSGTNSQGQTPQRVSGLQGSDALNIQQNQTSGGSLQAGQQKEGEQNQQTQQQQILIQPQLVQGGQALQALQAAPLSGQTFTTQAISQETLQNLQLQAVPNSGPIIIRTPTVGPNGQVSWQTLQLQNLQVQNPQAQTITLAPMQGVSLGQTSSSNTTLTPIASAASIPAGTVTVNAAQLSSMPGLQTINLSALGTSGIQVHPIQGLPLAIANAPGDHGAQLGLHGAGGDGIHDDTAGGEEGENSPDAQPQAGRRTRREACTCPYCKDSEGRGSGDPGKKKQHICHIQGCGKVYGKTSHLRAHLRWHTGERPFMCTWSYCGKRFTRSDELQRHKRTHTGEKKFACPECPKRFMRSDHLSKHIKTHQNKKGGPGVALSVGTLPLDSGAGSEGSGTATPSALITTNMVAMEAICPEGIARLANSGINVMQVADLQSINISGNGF

At least one result comes from cells or an extract, where the contact may be indirect. For part of these data: A negative result means that nothing was seen under these conditions. For part of these data: Where a protein sequence is shown, tags need not be part of it.

One data set deals with T1, Elk-1 (UniProt P19419).
T1 sequence (looked up, limits assumed): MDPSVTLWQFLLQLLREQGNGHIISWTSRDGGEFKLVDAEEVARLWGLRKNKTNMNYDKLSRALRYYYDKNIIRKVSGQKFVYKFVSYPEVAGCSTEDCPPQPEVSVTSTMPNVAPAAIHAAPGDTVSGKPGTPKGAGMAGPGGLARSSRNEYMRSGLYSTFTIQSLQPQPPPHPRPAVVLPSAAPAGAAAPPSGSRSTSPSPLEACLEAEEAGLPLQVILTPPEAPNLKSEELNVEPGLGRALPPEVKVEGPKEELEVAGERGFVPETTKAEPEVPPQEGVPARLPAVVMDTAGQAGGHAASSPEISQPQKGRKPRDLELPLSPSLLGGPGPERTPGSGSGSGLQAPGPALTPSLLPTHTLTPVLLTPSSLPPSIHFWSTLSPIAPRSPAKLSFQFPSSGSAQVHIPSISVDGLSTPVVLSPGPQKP
In words: competition with a labelled probe. The following applies: protein in an extract, protein details: endogenous, nuclear extract.

Data set [1] has as its target T2, SRF (UniProt P11831).
T2 sequence (looked up, limits assumed): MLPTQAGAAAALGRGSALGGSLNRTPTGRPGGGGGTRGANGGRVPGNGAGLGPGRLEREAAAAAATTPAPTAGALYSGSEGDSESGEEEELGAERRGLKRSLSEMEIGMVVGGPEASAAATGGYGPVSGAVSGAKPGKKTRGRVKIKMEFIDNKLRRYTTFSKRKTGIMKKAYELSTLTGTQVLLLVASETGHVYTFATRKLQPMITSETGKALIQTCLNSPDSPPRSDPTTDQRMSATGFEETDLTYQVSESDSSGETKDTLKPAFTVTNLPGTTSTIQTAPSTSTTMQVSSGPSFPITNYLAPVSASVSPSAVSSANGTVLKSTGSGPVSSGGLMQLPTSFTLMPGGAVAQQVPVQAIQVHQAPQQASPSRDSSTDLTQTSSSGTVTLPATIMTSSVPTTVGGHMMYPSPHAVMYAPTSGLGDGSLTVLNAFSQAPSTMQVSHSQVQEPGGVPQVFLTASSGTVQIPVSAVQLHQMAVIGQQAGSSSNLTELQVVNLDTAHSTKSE
Put plainly: competition with a labelled probe. Conditions: protein in an extract, protein details: endogenous, nuclear extract.

Data set [2] has as its target Sp1 (UniProt P08047). In words: EMSA. Conditions: Complex II, supershifted by anti-Sp1 and decreased by blocking antibody 1C6; protein in an extract; protein details: endogenous, nuclear extract. In general terms: A gel shift assay detects complexes by their altered migration in electrophoresis.
In data set [3] the target is T2, SRF. Put plainly: EMSA. The following applies: Complex I, supershifted by anti-SRF; complex with Elk-1; protein in an extract; protein details: endogenous, nuclear extract.
In data set [4] the target is Sp1 (UniProt P08047). In words: competition with a labelled probe. Conditions: protein in an extract, protein details: endogenous, nuclear extract.
Setting [5] is: competitor did not inhibit Complex I.
Where [6] appears, read: unlabeled triple-site mutant did not inhibit Complex I, variant of WT Mcl-1 oligonucleotide (-135 to -92).

Consider “ATTCGATCGGGGCGGGGCGAGC (double strand) [Sp1 consensus oligonucleotide]”, for which the binding result in the data set with Elk-1 (setting [5]) and with SRF [1] (setting [5]) was “no binding” in each case.

“CAACCCTCCGGAAGCTGCCGCCCCTTTCCCCTTTTATGGGAATA (double strand) [WT Mcl-1 oligonucleotide (-135 to -92)]”: the binding result with Sp1 [2] and with SRF [3] was “binds” each time.

“CAACCCTCCTTAAGCTGCTGACCCTTTCCCCTTCGGCTGGAATA (double strand) [delta Mcl-1 oligonucleotide]”: the binding result with Elk-1 (setting [6]) is “no binding”; with Sp1 [4] (unlabeled triple-site mutant did not inhibit Complex II, variant of WT Mcl-1 oligonucleotide (-135 to -92)), “no binding”; with SRF [1] (setting [6]), “no binding”.

“CTTACACAGGATGTCCATATTAGGACATCT (double strand) [c-Fos SRE oligonucleotide]”: the values for the binding result in the data set with Sp1 [4] (competitor did not inhibit Complex II) and with SRF [1] (unlabeled competitor inhibited Complex I (SRF/Elk-1)) were “no binding” and “binds”, respectively.
